Experimental data: publication PMC3754942, “Selection of Specific Protein Binders for Pre-Defined Targets from an Optimized Library of Artificial Helicoidal Repeat Proteins (alphaRep)” (PLoS ONE, 2013)

Legend:
[1] = molecular target: T1, Ebs1 N-terminal domain (residues 1–610) (S. cerevisiae, UniProt Q03466 1-610); test: ITC; ITC 200 microcalorimeter, PBS, 2 μL injections of titrant (200 to 350 μM) into 20 to 35 μM of the partner in the cell, one-binding-site model, monomer concentrations; apparent Kd (may include dissociation of homodimers); conditions: both partners purified
T1 construct: Ebs1, Saccharomyces cerevisiae S288C, N-terminal domain, residues 1-610; source: E. coli BL21 DE3 (pET21-a), purified (Ni-NTA, SEC)
T1 sequence (looked up): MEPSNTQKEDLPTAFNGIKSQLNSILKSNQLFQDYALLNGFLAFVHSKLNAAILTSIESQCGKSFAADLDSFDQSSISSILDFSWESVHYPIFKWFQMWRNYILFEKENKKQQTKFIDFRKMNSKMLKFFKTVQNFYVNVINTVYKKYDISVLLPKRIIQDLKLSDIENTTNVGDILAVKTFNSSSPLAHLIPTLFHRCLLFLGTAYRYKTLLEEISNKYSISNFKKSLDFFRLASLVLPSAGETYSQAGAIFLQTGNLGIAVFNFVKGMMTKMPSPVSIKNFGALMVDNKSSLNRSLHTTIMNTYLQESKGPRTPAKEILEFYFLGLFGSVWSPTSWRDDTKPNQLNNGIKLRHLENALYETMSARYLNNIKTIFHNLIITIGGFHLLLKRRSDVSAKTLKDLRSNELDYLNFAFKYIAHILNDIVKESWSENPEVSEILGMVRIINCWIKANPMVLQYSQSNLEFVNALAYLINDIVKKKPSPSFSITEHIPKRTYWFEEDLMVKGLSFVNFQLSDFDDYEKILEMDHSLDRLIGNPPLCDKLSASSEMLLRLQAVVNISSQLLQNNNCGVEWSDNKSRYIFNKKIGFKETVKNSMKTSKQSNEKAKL

[2] = molecular target: T1, Ebs1 N-terminal domain (residues 1–610); test: as above; conditions: both partners purified; remark: listed apart in the source
[3] = molecular target: T1, Ebs1 N-terminal domain (residues 1–610); test: SEC-MALS; SEC-MALLS, data not shown; conditions: both partners purified
[4] = molecular target: the molecule itself; test: SEC-MALS; SEC-MALLS, data not shown

Kd [1]: 12.3 ± 12 nM | stoichiometry N [2]: 1.5 ± 0.1 | stoichiometry N [3]: 1
B1: αRep binder bEbs1–6 (designed binder)
chain: MRGSHHHHHHTDPEKVEMYIKNLQDDSLLVRFDAAVALGKIGDERAVEPLIKALKDEDWLVRFSAAWALGEIGDERAVEPLIKALKDEDSAVRTAAALALGKIGDERAVEPLIKALKDEDASVREEAARALGKIGDERAVEPLIKALKDEDAAVRYGAAAALGEIGDERAVEPLIKALKDEDRQVRSAAADALGEIGDERAVEPLIKALKDEDEFVRFSAADALGEIGDERAVEPLIKALKDEDASVRFSAAEALGEIGGERVRAAMEKLAETGTGFARKVAVNYLETHKSLIS
stoichiometry N [4]: 2
